Data as given in paper PMC5865166, “MultiBacMam Bimolecular Fluorescence Complementation (BiFC) tool-kit identifies new small-molecule inhibitors of the CDK5-p25 protein-protein interaction (PPI)” (Scientific Reports, 2018).
Results are given in words; binding and its absence hold for the method and conditions named. In cells and extracts the contact can be indirect. Some entries that bind do so weakly or less than the wild type.

By UniProt entry, the sequences of proteins in these tests, tags left out. Residues count along the entry.
UniProt Q15078, residues 99-307: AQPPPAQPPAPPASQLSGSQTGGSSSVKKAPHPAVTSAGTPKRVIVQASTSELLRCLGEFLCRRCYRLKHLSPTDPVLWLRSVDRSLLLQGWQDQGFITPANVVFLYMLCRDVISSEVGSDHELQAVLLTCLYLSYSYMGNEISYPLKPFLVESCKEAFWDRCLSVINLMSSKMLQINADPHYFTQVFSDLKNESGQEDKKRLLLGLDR

Key:
VN-CDK5(D144N) [1] = target: VN-CDK5(D144N) (UniProt Q00535); experiment: split reporter; Venus BiFC; plasmid-based transfection of U2OS cells
VN-CDK5(D144N) [2] = target: VN-CDK5(D144N) (UniProt Q00535); experiment: split reporter; Venus BiFC; U2OS, HeLa and Cos7 cells transduced with MultiBacMam baculovirus at MOI 25 to 500; fixed, Hoechst 33342 stained, imaged

binding (VN-CDK5(D144N) [1]): binds | binding (VN-CDK5(D144N) [2]): binds
Substance: VC-p25 (from UniProt Q15078 99-307) (domain or fragment)
